The record followed here is patent publication US20250368753A1.

By UniProt entry, the sequences of proteins in these tests, tags left out. Where a name states a change or a piece, a line headed by the entry shows the natural chain unless it says otherwise.
UniProt Q8NBP7: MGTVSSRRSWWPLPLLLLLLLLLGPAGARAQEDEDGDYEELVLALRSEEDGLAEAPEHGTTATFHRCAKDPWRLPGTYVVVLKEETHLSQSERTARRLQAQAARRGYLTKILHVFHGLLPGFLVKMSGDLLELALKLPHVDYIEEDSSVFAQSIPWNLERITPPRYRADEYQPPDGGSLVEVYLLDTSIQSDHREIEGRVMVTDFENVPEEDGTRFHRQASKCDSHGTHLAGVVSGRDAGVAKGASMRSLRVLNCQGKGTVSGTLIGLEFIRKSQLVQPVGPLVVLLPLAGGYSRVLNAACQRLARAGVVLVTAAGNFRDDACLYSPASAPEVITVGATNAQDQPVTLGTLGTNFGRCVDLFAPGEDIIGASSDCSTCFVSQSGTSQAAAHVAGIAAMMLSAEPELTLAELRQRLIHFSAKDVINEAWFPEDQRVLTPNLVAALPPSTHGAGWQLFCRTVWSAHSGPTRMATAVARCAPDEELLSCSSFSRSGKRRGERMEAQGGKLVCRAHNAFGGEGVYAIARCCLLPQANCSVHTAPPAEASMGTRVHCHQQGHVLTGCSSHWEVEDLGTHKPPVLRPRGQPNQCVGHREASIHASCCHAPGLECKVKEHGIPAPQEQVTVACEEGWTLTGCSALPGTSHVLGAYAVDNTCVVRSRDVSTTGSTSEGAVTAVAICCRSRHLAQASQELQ

These are yes or no findings as the source states them, for the method shown. A result given as binding can be weak or reduced; the word gives no strength.

The assay has as its target proprotein convertase subtilisin/kexin type 9 (PCSK9) (human) (UniProt Q8NBP7). As to the kind of experiment: DELFIA immunoassay (PerkinElmer Cat. #1244-330).

B1: Reference Antibody (antibody, V domains shown)
VH: QVQLVQSGAEVKKPGASVKVSCKASGYTFTSYYMHWVRQAPGQGLEWMGEISPFGGRTNYNEKFKSRVTMTRDTSTSTVYMELSSLRSEDTAVYYCARERPLYASDLWGQGTTVTVSS
VL: DIQMTQSPSSLSASVGDRVTITCRASQGISSALAWYQQKPGKAPKLLIYSASYRYTGVPSRFSGSGSGTDFTFTISSLQPEDIATYYCQQRYSLWRTFGQGTKLEIK
As for B1, the binding entry was “binds”.
